Laboratory results reported in the supplement of paper PMC7661543.
Differences between knockout arms are mostly noise.

Experiments:
Experiment in all cases: relative cell number vs DMSO control (72 h) (% of DMSO); higher = less growth inhibition (more cells)
MDA-MB-231 = system: MDA-MB-231
Experimental: (§1)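 QMAP-Seq: a pool of 5 breast cancer cell lines (ZR-75-1, SKBR3, HCC-38, MDA-MB-231, BT-20), each carrying 12 doxycycline-inducible Cas9 sgRNA perturbations (11 knockouts plus non-targeting sgNT), was treated with compounds for 72 h at four 10-fold doses (10 nM-10 uM or 1 nM-1 uM range). Barcodes were amplified and sequenced, and cell number was interpolated from 293T spike-in standard curves. The result is expressed as % of the median of DMSO wells. Two biological replicates.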

SKBR3 = system: SKBR3
Experimental: as §1

ZR-75-1 = system: ZR-75-1
Experimental: as §1

CC(C)(C(=O)NCC(F)(F)C(F)(F)F)C(=O)N[C@@H]1C(=O)Nc2ccccc2-c2ccccc21
relative cell number
Settings | MDA-MB-231 | SKBR3 | ZR-75-1
sgRNA knockout: sgATF3, 10 nM | 87.2 | 130 | 88.2
sgRNA knockout: sgATF3, 100 nM | 112.9 | 118 | 119
sgRNA knockout: sgATF3, 1000 nM | 115 | 111 | 104
sgRNA knockout: sgATF3, 10000 nM | 108 | 125 | 103
sgRNA knockout: sgATF4, 10 nM | 117 | 90.4 | 70.4
sgRNA knockout: sgATF4, 100 nM | 148 | 89.3 | 123
sgRNA knockout: sgATF4, 1000 nM | 132 | 84.12 | 124
sgRNA knockout: sgATF4, 10000 nM | 143 | 105 | 118
sgRNA knockout: sgATF6, 10 nM | 97.1 | 88.6 | 113
sgRNA knockout: sgATF6, 100 nM | 115 | 91.5 | 128
sgRNA knockout: sgATF6, 1000 nM | 115.73 | 96.47 | 88.1
sgRNA knockout: sgATF6, 10000 nM | 93.1 | 100 | 110
sgRNA knockout: sgATG7, 10 nM | 108 | 113 | 92.9
sgRNA knockout: sgATG7, 100 nM | 103 | 99.9 | 105
sgRNA knockout: sgATG7, 1000 nM | 101.6 | 123 | 94.7
sgRNA knockout: sgATG7, 10000 nM | 94.2 | 106 | 89
sgRNA knockout: sgERN1, 10 nM | 89.8 | 108 | 90.2
sgRNA knockout: sgERN1, 100 nM | 107 | 96.1 | 88.3
sgRNA knockout: sgERN1, 1000 nM | 95 | 92.2 | 114
sgRNA knockout: sgERN1, 10000 nM | 104 | 103 | 96.1
sgRNA knockout: sgHSF1, 10 nM | 93.6 | 109 | –
sgRNA knockout: sgHSF1, 100 nM | 92.8 | 88.3 | –
sgRNA knockout: sgHSF1, 1000 nM | 84 | 83.1 | –
sgRNA knockout: sgHSF1, 10000 nM | 93.8 | 91.9 | –
sgRNA knockout: sgHSF2, 10 nM | 109 | 103 | 75.2
sgRNA knockout: sgHSF2, 100 nM | 128 | 100 | 99.6
sgRNA knockout: sgHSF2, 1000 nM | 114 | 102 | 90.8
sgRNA knockout: sgHSF2, 10000 nM | 98.4 | 92.6 | 81.9
sgRNA knockout: sgKEAP1, 10 nM | 102 | 99.3 | –
sgRNA knockout: sgKEAP1, 100 nM | 107 | 92.4 | –
sgRNA knockout: sgKEAP1, 1000 nM | 111 | 103 | –
sgRNA knockout: sgKEAP1, 10000 nM | 108 | 88.6 | –
sgRNA knockout: sgNFE2L2, 10 nM | 117 | 92.8 | 81.9
sgRNA knockout: sgNFE2L2, 100 nM | 116 | 117 | 101
sgRNA knockout: sgNFE2L2, 1000 nM | 103 | 81.4 | 96.1
sgRNA knockout: sgNFE2L2, 10000 nM | 120 | 97.6 | 117
sgRNA knockout: sgSLC35F2, 10 nM | 92.1 | 107 | 98.6
sgRNA knockout: sgSLC35F2, 100 nM | 116 | 108 | 113
sgRNA knockout: sgSLC35F2, 1000 nM | 111 | 99.21 | 79.1
sgRNA knockout: sgSLC35F2, 10000 nM | 95.9 | 99.8 | 116
sgRNA knockout: sgXBP1, 10 nM | 98.5 | 104 | 82.5
sgRNA knockout: sgXBP1, 100 nM | 103 | 116 | 83.8
sgRNA knockout: sgXBP1, 1000 nM | 109 | 128 | 86.4
sgRNA knockout: sgXBP1, 10000 nM | 107 | 118 | 86.6

CC(C)OC(=O)C1=CN(C(=O)c2ccc(F)c(F)c2)CC(C)(C)c2c1[nH]c1ccccc21
relative cell number
Settings | MDA-MB-231 | SKBR3 | ZR-75-1
sgRNA knockout: sgATF3, 10 nM | 95.4 | 87.1 | 74.5
sgRNA knockout: sgATF3, 100 nM | 110 | 91.8 | 113
sgRNA knockout: sgATF3, 1000 nM | 113.1 | 92.5 | 112
sgRNA knockout: sgATF3, 10000 nM | 70.9 | 97.2 | 97.1
sgRNA knockout: sgATF4, 10 nM | 104 | 82.3 | 92.3
sgRNA knockout: sgATF4, 100 nM | 112 | 101 | 98.5
sgRNA knockout: sgATF4, 1000 nM | 86.8 | 90.3 | 126
sgRNA knockout: sgATF4, 10000 nM | 105 | 83.1 | 114
sgRNA knockout: sgATF6, 10 nM | 72.9 | 74.3 | 103
sgRNA knockout: sgATF6, 100 nM | 65.3 | 99.2 | 106
sgRNA knockout: sgATF6, 1000 nM | 101 | 90.64 | 101
sgRNA knockout: sgATF6, 10000 nM | 81.8 | 104.8 | 87
sgRNA knockout: sgATG7, 10 nM | 85.8 | 77.6 | 86.1
sgRNA knockout: sgATG7, 100 nM | 96.2 | 116 | 91.8
sgRNA knockout: sgATG7, 1000 nM | 101 | 101 | 86.4
sgRNA knockout: sgATG7, 10000 nM | 98.5 | 115 | 69.2
sgRNA knockout: sgERN1, 10 nM | 99 | 102 | 92.4
sgRNA knockout: sgERN1, 100 nM | 94.2 | 75.3 | 76.9
sgRNA knockout: sgERN1, 1000 nM | 89.6 | 134 | 83.4
sgRNA knockout: sgERN1, 10000 nM | 89.9 | 104 | 88
sgRNA knockout: sgHSF1, 10 nM | 100 | 77 | –
sgRNA knockout: sgHSF1, 100 nM | 74 | 84.1 | –
sgRNA knockout: sgHSF1, 1000 nM | 118 | 93 | –
sgRNA knockout: sgHSF1, 10000 nM | 105 | 104 | –
sgRNA knockout: sgHSF2, 10 nM | 95.2 | 91.9 | 92.1
sgRNA knockout: sgHSF2, 100 nM | 80.5 | 104 | 101
sgRNA knockout: sgHSF2, 1000 nM | 87.6 | 96.4 | 97.7
sgRNA knockout: sgHSF2, 10000 nM | 101 | 85.98 | 111
sgRNA knockout: sgKEAP1, 10 nM | 110 | 90.6 | –
sgRNA knockout: sgKEAP1, 100 nM | 106 | 108 | –
sgRNA knockout: sgKEAP1, 1000 nM | 116 | 90.3 | –
sgRNA knockout: sgKEAP1, 10000 nM | 87.9 | 101 | –
sgRNA knockout: sgNFE2L2, 10 nM | 92.7 | 102 | 90.9
sgRNA knockout: sgNFE2L2, 100 nM | 97.1 | 94.34 | 105
sgRNA knockout: sgNFE2L2, 1000 nM | 107 | 95.3 | 121
sgRNA knockout: sgNFE2L2, 10000 nM | 96 | 95.1 | 105
sgRNA knockout: sgSLC35F2, 10 nM | 96.7 | 88.8 | 111
sgRNA knockout: sgSLC35F2, 100 nM | 80 | 106 | 89.8
sgRNA knockout: sgSLC35F2, 1000 nM | 97.3 | 95.2 | 67.4
sgRNA knockout: sgSLC35F2, 10000 nM | 98.4 | 91.5 | 101
sgRNA knockout: sgXBP1, 10 nM | 103.2 | 88.5 | 91.3
sgRNA knockout: sgXBP1, 100 nM | 92 | 119 | 101
sgRNA knockout: sgXBP1, 1000 nM | 118 | 108 | 111
sgRNA knockout: sgXBP1, 10000 nM | 97.5 | 102 | 97.1
